Measurements from US20070054916A1, “Aryl nitrogen-containing bicyclic compounds and methods of use” (Amgen Inc., priority 2004, published 2007).
Some results were stated once for a whole list of compounds, not compound by compound.

Chains of the proteins cited; added tags and fusions are not shown. Residues count along the entry.
UniProt Q02763, 23-1124: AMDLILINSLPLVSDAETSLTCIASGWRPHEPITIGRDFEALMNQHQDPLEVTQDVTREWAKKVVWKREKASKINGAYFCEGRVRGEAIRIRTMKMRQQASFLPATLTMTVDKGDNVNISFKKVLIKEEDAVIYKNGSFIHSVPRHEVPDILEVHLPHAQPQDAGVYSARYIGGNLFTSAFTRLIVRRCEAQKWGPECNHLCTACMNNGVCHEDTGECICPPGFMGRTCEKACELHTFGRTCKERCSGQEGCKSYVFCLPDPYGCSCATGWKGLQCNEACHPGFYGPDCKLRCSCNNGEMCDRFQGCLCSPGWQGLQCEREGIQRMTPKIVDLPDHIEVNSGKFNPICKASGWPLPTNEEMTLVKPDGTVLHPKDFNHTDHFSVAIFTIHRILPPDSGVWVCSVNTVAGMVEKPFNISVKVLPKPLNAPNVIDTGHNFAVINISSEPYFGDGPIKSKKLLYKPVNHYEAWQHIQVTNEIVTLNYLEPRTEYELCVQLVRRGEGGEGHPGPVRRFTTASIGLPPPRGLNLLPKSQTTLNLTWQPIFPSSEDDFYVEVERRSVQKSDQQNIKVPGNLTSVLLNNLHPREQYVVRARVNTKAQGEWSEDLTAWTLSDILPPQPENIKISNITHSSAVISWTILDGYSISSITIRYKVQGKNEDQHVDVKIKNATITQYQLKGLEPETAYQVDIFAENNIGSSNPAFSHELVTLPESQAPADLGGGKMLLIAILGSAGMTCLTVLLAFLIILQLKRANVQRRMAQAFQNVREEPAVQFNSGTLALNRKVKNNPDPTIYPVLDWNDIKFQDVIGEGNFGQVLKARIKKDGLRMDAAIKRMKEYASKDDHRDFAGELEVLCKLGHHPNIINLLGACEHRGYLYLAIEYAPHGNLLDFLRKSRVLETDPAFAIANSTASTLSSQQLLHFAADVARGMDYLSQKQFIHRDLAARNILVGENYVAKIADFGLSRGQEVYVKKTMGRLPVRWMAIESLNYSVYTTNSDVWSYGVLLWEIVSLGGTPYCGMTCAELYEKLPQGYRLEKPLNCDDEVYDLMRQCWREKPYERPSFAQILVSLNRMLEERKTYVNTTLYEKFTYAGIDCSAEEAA

target: Tie-2 kinase enzyme (Homo sapiens, UniProt Q02763); experiment: Tie-2 Homogenous Time Resolved Flourescent (HTRF) kinase assay; type: biochemical; conditions: read-out: IC50's for the inhibition of Tie-2 as measured by the HTRF assay

| Structure (SMILES) | IC50 |
| --- | --- |
| Cc1ccc(C(=O)Nc2cc(C(F)(F)F)ccc2OCCCN(C)C)cc1-c1ccc2nc(N)ncc2c1 [Example 144, 3-(2-amino-6-quinazolinyl)-N-(2-((3-(dimethylamino)propyl)oxy)-5-(trifluoromethyl)phenyl)-4-methylbenzamide] | ≤ 1 µM |
| CSc1ccc(C(F)(F)F)cc1NC(=O)c1ccc(C)c(-c2ccc3nc(N)ncc3c2)c1 [Example 146, 3-(2-amino-6-quinazolinyl)-4-methyl-N-(2-(methylsulfanyl)-5-(trifluoromethyl)phenyl)benzamide] | ≤ 1 µM |
| Cc1ccc(F)c(NC(=O)c2ccc(C)c(-c3ccc4nc(N)ncc4c3)c2)c1 [Example 147, 3-(2-amino-6-quinazolinyl)-N-(2-fluoro-5-methylphenyl)-4-methylbenzamide] | ≤ 1 µM |
| COc1ccc(OC)c(NC(=O)c2ccc(C)c(-c3ccc4nc(N)ncc4c3)c2)c1 [Example 148, 3-(2-amino-6-quinazolinyl)-N-(2,5-bis(methyloxy)phenyl)-4-methylbenzamide] | ≤ 1 µM |
| Nc1ncc2cc(-c3cc(F)cc(C(=O)Nc4cccc(C(F)(F)F)c4)c3)ccc2n1 [Example 150, 3-(2-amino-6-quinazolinyl)-5-fluoro-N-(3-(trifluoromethyl)phenyl)benzamide] | ≤ 1 µM |
| COc1cc(NC(=O)c2cc(Br)cc(-c3ccc4nc(N)ncc4c3)c2)cc(OC)c1 [Example 152, 3-(2-amino-6-quinazolinyl)-N-(3,5-bis(methyloxy)phenyl)-5-bromobenzamide] | ≤ 1 µM |
| Nc1ncc2cc(-c3cc(Br)cc(C(=O)Nc4cccc(C(F)(F)F)c4)c3)ccc2n1 [Example 153, 3-(2-amino-6-quinazolinyl)-5-bromo-N-(3-(trifluoromethyl)phenyl)benzamide] | ≤ 1 µM |
| Nc1ncc2cc(-c3cc(Cl)cc(C(=O)Nc4cccc(C(F)(F)F)c4)c3)ccc2n1 [Example 154, 3-(2-amino-6-quinazolinyl)-5-chloro-N-(3-(trifluoromethyl)phenyl)benzamide] | ≤ 1 µM |
| Nc1ncc2cc(-c3cc(C(=O)Nc4cc(C(F)(F)F)ccc4N4CCCC4)ccc3Cl)ccc2n1 [Example 155, 3-(2-amino-6-quinazolinyl)-4-chloro-N-(2-(1-pyrrolidinyl)-5-(trifluoromethyl)phenyl)benzamide] | ≤ 1 µM |
| Nc1ncc2cc(-c3cc(C(=O)Nc4cc(C(F)(F)F)ccc4N4CCCCC4)ccc3Cl)ccc2n1 [Example 156, 3-(2-amino-6-quinazolinyl)-4-chloro-N-(2-(1-piperidinyl)-5-(trifluoromethyl)phenyl)benzamide] | ≤ 1 µM |
| Nc1ncc2cc(-c3cc(C(=O)Nc4cc(C(F)(F)F)ccc4N4CCOCC4)ccc3Cl)ccc2n1 [Example 157, 3-(2-amino-6-quinazolinyl)-4-chloro-N-(2-(4-morpholinyl)-5-(trifluoromethyl)phenyl)benzamide] | ≤ 1 µM |
| Cc1ccc(C(=O)Nc2cc(C(=O)N3CCN(C)CC3)cc(C(F)(F)F)c2)cc1-c1ccc2nc(N)ncc2c1 [Example 158, 3-(2-amino-6-quinazolinyl)-4-methyl-N-(3-((4-methyl-1-piperazinyl)carbonyl)-5-(trifluoromethyl)phenyl)benzamide] | ≤ 1 µM |
| Cc1ccc(C(=O)Nc2cc(CN3CCN(C)CC3)cc(C(F)(F)F)c2)cc1-c1ccc2nc(N)ncc2c1 [Example 159, 3-(2-amino-6-quinazolinyl)-4-methyl-N-(3-((4-methyl-1-piperazinyl)methyl)-5-(trifluoromethyl)phenyl)benzamide] | ≤ 1 µM |
| Cc1ccc(C(=O)OCc2ccccc2)cc1-c1ccc2nc(N)ncc2c1 [Example 160, phenylmethyl 3-(2-amino-6-quinazolinyl)-4-methylbenzoate] | ≤ 1 µM |
| COc1ccc(-c2ccc3nc(N)ncc3c2)cc1C(=O)Nc1cccc(C(F)(F)F)c1 [Example 161, 5-(2-amino-6-quinazolinyl)-2-(methyloxy)-N-(3-(trifluoromethyl)phenyl)benzamide] | ≤ 1 µM |
| Cc1cc(N2CCN(c3cccc(C(F)(F)F)c3)C2=O)ccc1-c1ccc2nc(N)ncc2c1 [Example 162, 1-(4-(2-amino-6-quinazolinyl)-3-methylphenyl)-3-(3-(trifluoromethyl)phenyl)-2-imidazolidinone] | ≤ 1 µM |
| COc1ccc(-c2ccc3nc(N)ncc3c2)cc1C(=O)Nc1cc(C(F)(F)F)ccc1N(C)CCCN(C)C [Example 163, 5-(2-amino-6-quinazolinyl)-N-(2-((3-(dimethylamino)propyl)(methyl)amino)-5-(trifluoromethyl)phenyl)-2-(methyloxy)benzamide] | ≤ 1 µM |
| CN(C)CCCN(C)c1ccc(C(F)(F)F)cc1NC(=O)c1cc(-c2ccc3nc(N)ncc3c2)cn(C)c1=O [Example 164, 5-(2-amino-6-quinazolinyl)-N-(2-((3-(dimethylamino)propyl)(methyl)amino)-5-(trifluoromethyl)phenyl)-1-methyl-2-oxo-1,2-dihydro-3-pyridinecarboxamide] | ≤ 1 µM |
| Nc1ncc2cc(-c3ccnc(C(=O)Nc4cccc(C(F)(F)F)c4)c3)ccc2n1 [Example 165, 4-(2-amino-6-quinazolinyl)-N-(3-(trifluoromethyl)phenyl)-2-pyridinecarboxamide] | ≤ 1 µM |

| Structure (SMILES) | IC50 |
| --- | --- |
| CNc1ncc2cc(-c3cc(C(=O)Nc4cccc(C(F)(F)F)c4)ccc3C)cnc2n1 [Example 167, 4-methyl-3-(2-(methylamino)pyrido[2,3-d]pyrimidin-6-yl)-N-(3-(trifluoromethyl)phenyl)benzamide] | ≤ 1 µM |
| Cc1ccc(C(=O)N2CC(=O)Nc3ccc(C(C)(C)C)cc32)cc1-c1ccc2nc(N)ncc2c1 [Example 169, 4-((3-(2-amino-6-quinazolinyl)-4-methylphenyl)carbonyl)-6-(1,1-dimethylethyl)-3,4-dihydro-2(1H)-quinoxalinone] | ≤ 1 µM |
| CNc1ncc2cc(-c3ccc(F)c(C(=O)Nc4cccc(C(F)(F)F)c4)c3)cnc2n1 [Example 170, 2-fluoro-5-(2-(methylamino)pyrido [2,3-d]pyrimidin-6-yl)-N-(3-(trifluoromethyl)phenyl)benzamide] | ≤ 1 µM |
| CNc1ncc2cc(-c3cc(C(=O)Nc4ccc(Cl)c(C(F)(F)F)c4)ccc3C)cnc2n1 [Example 173, N-(4-chloro-3-(trifluoromethyl)phenyl)-4-methyl-3-(2-(methylamino)pyrido [2,3-d]pyrimidin-6-yl)benzamide] | ≤ 1 µM |
| CNc1ncc2cc(-c3cc(C(=O)Nc4ccc(C(C)C)c(C)c4)ccc3C)cnc2n1 [Example 174] | ≤ 1 µM |
| CNc1ncc2cc(-c3cc(C(=O)Nc4cccc(C(F)(F)F)c4C)ccc3C)cnc2n1 [Example 175, 4-methyl-3-(2-(methylamino)pyrido [2,3-d]pyrimidin-6-yl)-N-(2-methyl-3-(trifluoromethyl)phenyl)benzamide] | ≤ 1 µM |
| CNc1ncc2cc(-c3cc(C(=O)Nc4ccc(C(F)(F)F)cc4)ccc3C)cnc2n1 [Example 176, 4-methyl-3-(2-(methylamino)pyrido [2,3-d]pyrimidin-6-yl)-N-(4-(trifluoromethyl)phenyl)benzamide] | ≤ 1 µM |
| CNc1ncc2cc(-c3cc(C(=O)Nc4ccc(C(C)(C)C)cc4)ccc3C)cnc2n1 [Example 177, N-(4-(1,1-dimethylethyl)phenyl)-4-methyl-3-(2-(methylamino)pyrido [2,3-d]pyrimidin-6-yl)benzamide] | ≤ 1 µM |
| CNc1ncc2cc(-c3cc(C(=O)Nc4cccc(C(C)(C)C)c4)ccc3C)cnc2n1 [Example 178, N-(3-(1,1-dimethylethyl)phenyl)-4-methyl-3-(2-(methylamino)pyrido [2,3-d]pyrimidin-6-yl)benzamide] | ≤ 1 µM |
| CNc1ncc2cc(-c3cc(C(=O)Nc4cccc(OC(F)(F)F)c4)ccc3C)cnc2n1 [Example 179, 4-methyl-3-(2-(methylamino)pyrido [2,3-d]pyrimidin-6-yl)-N-(3-((trifluoromethyl)oxy)phenyl)benzamide] | ≤ 1 µM |
| CNc1ncc2cc(-c3cc(C(=O)Nc4ccc(OC)c(C(F)(F)F)c4)ccc3C)cnc2n1 [Example 184, 4-methyl-3-(2-(methylamino)pyrido [2,3-d]pyrimidin-6-yl)-N-(4-(methyloxy)-3-(trifluoromethyl)phenyl)benzamide] | ≤ 1 µM |
| CNc1ncc2cc(-c3cc(C(=O)Nc4cc(C(C)(C)C)ccc4OC)ccc3C)cnc2n1 [Example 186] | ≤ 1 µM |
| CNc1ncc2cc(-c3cc(C(=O)Nc4cc(C(=O)NCCN5CCOCC5)cc(C(F)(F)F)c4)ccc3C)cnc2n1 [Example 189, 4-methyl-3-(2-(methylamino)pyrido [2,3-d]pyrimidin-6-yl)-N-(3-(((2-(4-morpholinyl)ethyl)amino)carbonyl)-5-(trifluoromethyl)phenyl)benzamide] | ≤ 1 µM |
| CCN(CC)CCNC(=O)c1cc(NC(=O)c2ccc(C)c(-c3cnc4nc(NC)ncc4c3)c2)cc(C(F)(F)F)c1 [Example 190, N-(3-(((2-(diethylamino)ethyl)amino)carbonyl)-5-(trifluoromethyl)phenyl)-4-methyl-3-(2-(methylamino)pyrido [2,3-d]pyrimidin-6-yl)benzamide] | ≤ 1 µM |
| CCN(CC)S(=O)(=O)c1ccc(OC)c(NC(=O)c2ccc(C)c(-c3cnc4nc(NC)ncc4c3)c2)c1 [Example 191, N-(5-((diethylamino)sulfonyl)-2-(methyloxy)phenyl)-4-methyl-3-(2-(methylamino)pyrido [2,3-d]pyrimidin-6-yl)benzamide] | ≤ 1 µM |
| CNc1ncc2cc(-c3cc(C(=O)Nc4cc(C(C)(C)C)ccc4NC(=O)CN4CCOCC4)ccc3C)cnc2n1 [Example 192] | ≤ 1 µM |
| CNc1ncc2cc(-c3cc(C(=O)Nc4cc(C(F)(F)F)ccc4N(C)CCCN(C)C)ccc3C)cnc2n1 [Example 193, N-(2-((3-(dimethylamino)propyl)(methyl)amino)-5-(trifluoromethyl)phenyl)-4-methyl-3-(2-(methylamino)pyrido[2,3-d]pyrimidin-6-yl)benzamide] | ≤ 1 µM |
| Nc1ncc2cc(-c3cccc(C(=O)Nc4cccc(C(F)(F)F)c4)c3)cnc2n1 [Example 194, 3-(2-aminopyrido[2,3-d]pyrimidin-6-yl)-N-(3-(trifluoromethyl)phenyl)benzamide] | ≤ 1 µM |
| Nc1ncc2cc(-c3cc(NC(=O)c4cccc(C(F)(F)F)c4)ccc3C(F)(F)F)ccc2n1 [Example 196] | ≤ 1 µM |
